Measured values taken from US10239937.
No constants are given. Whether binding was seen depends on the method and setting. Some results given as binding are weak or reduced against the parent protein; the word gives no strength.

By UniProt entry, the sequences of proteins in these tests, tags left out. Residues count along the entry.
UniProt P01024, residues 1002-1303: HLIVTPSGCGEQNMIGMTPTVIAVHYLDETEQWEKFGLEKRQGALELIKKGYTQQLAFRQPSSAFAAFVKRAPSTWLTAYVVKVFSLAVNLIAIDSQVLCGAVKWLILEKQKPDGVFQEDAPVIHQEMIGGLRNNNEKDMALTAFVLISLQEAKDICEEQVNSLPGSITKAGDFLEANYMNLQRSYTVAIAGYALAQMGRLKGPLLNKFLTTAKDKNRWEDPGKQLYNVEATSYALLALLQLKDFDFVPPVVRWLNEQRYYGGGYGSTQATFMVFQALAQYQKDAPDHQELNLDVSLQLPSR

Legend:
[1] = molecular target: C3 fragments (iC3b, C3dg and C3d) of human complement component C3, deposited on cells or tissue (human) (UniProt P01024); assay: immunostaining of asthmatic human lung tissue
[2] = molecular target: C3 fragments (iC3b, C3dg and C3d) of human complement component C3, deposited on cells or tissue (human) (UniProt P01024); assay: immunostaining of asthmatic human lung tissue (FIG. 24)
[3] = molecular target: C3 fragments (iC3b, C3dg and C3d) of human complement component C3, deposited on cells or tissue (human) (UniProt P01024); assay: C3frag+ PNH RBCs from patients on eculizumab, in vitro hemolysis assay (modified Ham test)
[4] = molecular target: C3 fragments (iC3b, C3dg and C3d) of human complement component C3, deposited on cells or tissue (human) (UniProt P01024); assay: flow cytometry with an anti-fH mAb on PNH RBCs incubated with TT30 in acidified normal serum

binding [1]: binds
binding [2]: binds
binding [4]: binds
B1: TT30 (protein)
chain: ISCGSPPPILNGRISYYSTPIAVGTVIRYSCSGTFRLIGEKSLLCITKDKVDGTWDKPAPKCEYFNKYSSCPEPIVPGGYKIRGSTPYRHGDSVTFACKTNFSMNGNKSVWCQANNMWGPTRLPTCVSVFPLECPALPMIHNGHHTSENVGSIAPGLSVTYSCESGYLLVGEKIINCLSSGKWSAVPPTCEEARCKSLGRFPNGKVKEPPILRVGVTANFFCDEGYRLQGPPSSRCVIAGQGVAWTKMPVCEEIFEDCNELPPRRNTEILTGSWSDQTYPEGTQAIYKCRPGYRSLGNVIMVCRKGEWVALNPLRKCQKRPCGHPGDTPFGTFTLTGGNVFEYGVKAVYTCNEGYQLLGEINYRECDTDGWTNDIPICEVVKCLPVTAPENGKIVSSAMEPDREYHFGQAVRFVCNSGYKIEGDEEMHCSDDGFWSKEKPKCVEISCKSPDVINGSPISQKIIYKENERFQYKCNMGYEYSERGDAVCTESGWRPLPSCEEKSCDNPYIPNGDYSPLRIKHRTGDEITYQCRNGFYPATRGNTAKCTSTGWIPAPRCTLK
binding [3]: binds
